Assay results from PMC9485235, “Structural insights into cyanobacterial RuBisCO assembly coordinated by two chaperones Raf1 and RbcX” (Cell Discovery, 2022).
These are yes or no findings as the source states them, for the method shown. Some results given as binding are weak or reduced against the parent protein; the word gives no strength. For part of these data: Tags and fused reporters may be left off the sequences shown.

Tests used:
[1] = target: RuBisCO large subunit RbcL from Anabaena sp. PCC 7120 (His-RbcL) (Anabaena sp. PCC 7120) (UniProt P00879); assay: co-purification (Ni-NTA, gel filtration); cells expressing Flag-RbcS and cells expressing His-RbcL with RbcX and S. elongatus PCC 7942 Raf1 (and GroEL-GroES) were mixed and disrupted; purified as the ternary complex by Ni-NTA and gel filtration to give the L8S8 holoenzyme
[2] = target: RuBisCO large subunit RbcL from Anabaena sp. PCC 7120 (His-RbcL) (Anabaena sp. PCC 7120) (UniProt P00879); assay: cryo-EM structure; RbcL–Raf1–RbcX ternary complex co-expressed in E. coli with GroEL-GroES, purified by Ni-NTA and gel filtration in 50 mM Tris-HCl pH 8.0, 20 mM NaCl, 5 mM MgCl2; ~2 mg/mL; D4 symmetry; 3.3 Å; both purified
[3] = target: RuBisCO large subunit RbcL from Anabaena sp. PCC 7120 (His-RbcL) (Anabaena sp. PCC 7120) (UniProt P00879); assay: native gel or EMSA; RuBisCO assembly assays: 0.5 µM L8F8 or L8F8X16 mixed with Flag-RbcS (0-10-fold to RbcL), with or without pre-incubation with 8 µM RbcX or RbcX^E32A&R69A or RbcX2 at 0-1 fold to RbcL; 25 °C, 20 mM Tris-HCl pH 8.0, 300 mM NaCl, 5 mM MgCl2, 5% glycerol; ~0.5 h; 6% native-PAGE, bands analysed by SDS-PAGE; both purified

binding [1] | binding [2] | binding [3] | Binder
binds |  |  | Recombinant Anabaena sp. PCC 7120 Flag-RbcS (RuBisCO small subunit) (natural protein, UniProt P06514 1-109, looked up, RbcS, RuBisCO small subunit, Anabaena sp; coding region amplified from genomic DNA; plasmid pET19-Flag-RbcS; A His-RbcS was also made (pET19-His-RbcS); the assembly-assay methods name Flag-RbcS; source: E. coli BL21 (DE3), purified (anti-FLAG M2 gel, Superdex 75); also in lysate (holoenzyme co-purification)) MQTLPKERRYETLSYLPPLTDVQIEKQVQYILSQGYIPAVEFNEVSEPTELYWTLWKLPLFGAKTSREVLAEVQSCRSQYPGHYIRVVGFDNIKQCQILSFIVHKPSRY
 | binds | binds | RuBisCO accumulation factor 1 (Raf1) from Anabaena sp. PCC 7120 (protein, UniProt Q8YLP6 1-361) MTELPPNAPNPENATNELAQELLRKLRQKQGNWVEWGQAIASLQKSGYNPQDIFEATGFEPVQQNQVIVGSQVYNSLEKSGASAATLAHYATRGSDVLYELRLLTHEERAAAGDLTFTHKVDADEAREIAKAIKDFSRFRILPEGFSNHPGDAVAYQAWKLARQYSDLQERSRLIARGLRFAHSETARKQIEQLLVDFTVVSQRPAPIPPFFRFDTEDELPRIVPVVGQLPLKAEELKAVPLVEEIEPFRLVKFSGEQAWVALPGWQVLLAAEDPVTILATSDRFPKQNQTEPGPVLVVVDRSQREWNDFSYFVVDHDGELDFQWFETKPEFPILGKVIILVRPRRILDENVTKDSWQIDE
